Reference: PubChem BioAssay AID504847 (National Center for Advancing Translational Sciences (NCATS), 2011)
Hit rate of the full screen: of about 400,000 compounds, about 3,700 (0.93%) were called active. Inconclusive results, whose numbers are uncertain, are shown with a selection of clear calls. The call rests on the fitted dose curve; in most records, active means well fitted inhibition curve with a large enough effect; inconclusive means small, poorly fitted or top-dose-only effect, or another doubt; inactive means no such curve, though single readings can be large or run the other way. Potencies beside an inconclusive call are fits to weak or partial responses and may not hold up. Some compounds were tested as several samples or in several runs, with calls that do not always agree.

Amino acid sequences for entries named in this document (tags omitted). A change or cut given only in a name is not applied to a line headed by its entry.
UniProt P11473: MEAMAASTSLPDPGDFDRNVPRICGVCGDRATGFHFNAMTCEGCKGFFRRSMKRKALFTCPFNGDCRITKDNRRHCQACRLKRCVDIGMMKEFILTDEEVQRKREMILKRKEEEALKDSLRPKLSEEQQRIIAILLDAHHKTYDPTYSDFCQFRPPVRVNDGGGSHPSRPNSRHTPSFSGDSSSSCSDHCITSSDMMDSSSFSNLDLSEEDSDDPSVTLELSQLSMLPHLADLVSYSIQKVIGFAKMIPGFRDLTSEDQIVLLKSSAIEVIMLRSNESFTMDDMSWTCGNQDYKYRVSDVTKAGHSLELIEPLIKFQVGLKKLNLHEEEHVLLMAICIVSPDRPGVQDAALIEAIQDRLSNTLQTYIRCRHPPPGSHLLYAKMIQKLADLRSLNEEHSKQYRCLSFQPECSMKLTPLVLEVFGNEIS

These compounds were tested against Vitamin D3 receptor (Homo sapiens) (UniProt P11473) (assay: Inhibitors of the vitamin D receptor (VDR): qHTS). Details: VDR-SRC2-3 peptide fluorescence polarization, 2 h; max response, negative = inhibition: hits give low values.
Summary of the method: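 Reagent solutions, kept cold and dark, are dispensed first; compounds are then pinned in at 23 nl, plates briefly spun, and incubated 2 h at ambient temperature. Inhibition of VDR–SRC2-3 peptide binding is read by fluorescence polarization.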
On the % scale 0 is the no-effect control and ±100 the full control effect; potency means the concentration at half of the fitted maximal effect.

SMILES	Potency	max response, negative = inhibition
O=[N+]([O-])c1ccc(NC(=S)N2CCc3ccccc3C2)cc1	inconclusive: 44.7 µM [inhibitor, partial curve]	–
CN(Cc1ccco1)c1cc(-c2cccc(C#N)c2)ncn1	inconclusive: 79.4 µM [inhibitor, partial curve]	–
O=C(OCC#CCSc1nnc(-c2cccc3ccccc23)o1)c1ccco1	–	inactive: 23.5%
CCN(CC)S(=O)(=O)c1ccc(N2CCOCC2)c(NC(=S)NC(=O)c2ccco2)c1	inconclusive: 79.4 µM [inhibitor, single point]	–
O=C(/C(=C/c1ccc(Cl)cc1)c1nc2ccccc2[nH]1)c1cccs1	active: 17.8 µM	–
COc1cccc(CC(=O)Nc2nc3c(s2)C(=O)CC(C)(C)C3)c1	–	inactive: -6.52%
COc1ccc(NC(=S)NNc2ccc(S(=O)(=O)Nc3ccccc3C(=O)O)cc2[N+](=O)[O-])cc1	–	inactive: -2.7%
CCC(Cc1ccccc1)OC(=O)c1ccccc1C(=O)O (stereo not drawn)	–	inactive: -4.17%
N#Cc1ccc(CSc2nnc(Cc3cccs3)n2Cc2ccco2)cc1	inconclusive: 89.1 µM [inhibitor, single point]	–
O=c1c2ccccc2nc(/C=C/c2cccnc2)n1CCc1ccccc1	–	inactive: -10.3%
CC(Sc1nnc2c(n1)C1(C)CCC2C1(C)C)C(=O)Nc1ccccc1 (stereo not drawn)	–	inactive: -5.45%
COC(=O)c1ccccc1NC(=O)COC(=O)[C@H](C)NC(N)=O	–	inactive: 13.8%
C/C1=C2N=C(/C=C3N=C(/C(C)=C4\[N-]C(C)(C5N=C1C(C)(CCC(=O)NCC(C)OP(=O)([O-])O[C@H]1C(O)C(n6cnc7cc(C)c(C)cc76)O[C@@H]1CO)C5CC(N)=O)C(C)(CC(N)=O)C4CCC(N)=O)C(C)(CC(N)=O)C\3CCC(N)=O)C(C)(C)C/2CCC(N)=O.[CH2-]C1OC(n2cnc3c(N)ncnc32)C(O)C1O.[Co] (stereo partly drawn)	inconclusive: 31.6 µM [inhibitor, full curve]	–
Cc1ccc(S(=O)(=O)N2[C@@H](c3ccc(Cl)cc3)C(C(=O)O)=CC[C@H]2c2ccc(Cl)c(Cl)c2)cc1	inconclusive: 56.2 µM [inhibitor, partial curve, poor fit]	–
O=C(CSc1n[nH]c(-c2ccccc2)n1)Nc1ccc(Br)cn1	–	inactive: -0.968%
COc1ccc(OC)c(NC(=O)Cn2c(=O)cc(-c3ccccc3)c3c(C)nn(C)c32)c1	–	inactive: 12.6%
S=c1nc2c(n[nH]1)c1ccccc1n2CCc1ccccc1	active: 79.4 µM	–
CCOc1ccc(N(Cc2ccccc2)C(=O)c2nc(S(C)(=O)=O)ncc2Cl)cc1	active: 12.6 µM	–
Cc1cc(N2CCOCC2)nc2ccc(NC(=S)NC(C)C)cc12	–	inactive: 1.87%
Cc1sc(-n2c(C)ccc2C)c(C#N)c1C	active: 79.4 µM	–
OCC1OC(n2cnc3c(Cl)ncnc32)C(O)C1O (stereo not drawn)	–	inactive: 7.86%
CC(=O)N1CC23C=CC(CC2CC12CCCCCC2)O3 (stereo not drawn)	inconclusive: 17.8 µM [inhibitor, single point]	–

SMILES	Potency	max response, negative = inhibition
COC(=O)CSCc1nc2ccccc2[nH]c1=O	inconclusive: 70.8 µM [inhibitor, partial curve]	–
CCCCCCCc1ccc(C2NC(=S)NC3=C2C(=O)c2ccccc23)cc1 (stereo not drawn)	inconclusive: 31.6 µM [inhibitor, single point]	–
CC1(C)c2ssc(=S)c2-c2ccccc2N1C(=O)c1ccco1	inconclusive: 39.8 µM [inhibitor, single point]	–
CCCc1sc(N2CCCC(C(N)=O)C2)nc1-c1ccccc1 (stereo not drawn)	active: 79.4 µM	–
Cc1cc(C)c(CN2CCC(N3CCC(C(=O)NCC4CCCO4)CC3)CC2)cc1C (stereo not drawn)	inconclusive: 35.5 µM [inhibitor, partial curve, poor fit]	–
COCCCN(C(=S)Nc1cc(Cl)cc(Cl)c1)C(C)c1ccncc1 (stereo not drawn)	inconclusive: 89.1 µM [inhibitor, single point]	–
COc1cc(/C=C2\SC(=O)NC2=O)ccc1Oc1ccc([N+](=O)[O-])cc1[N+](=O)[O-]	inconclusive: 79.4 µM [inhibitor, single point]	–
Cc1cccc2c3c([nH]c12)CCNC3	inconclusive: 70.8 µM [inhibitor, single point]	–
CC(=O)Nc1c(C)ccc(CNC(=O)COc2cc(C)ccc2C)c1C	–	inactive: -18%
CCCn1c(CN2CCN(C(=O)OCC)CC2)nc2cc(NC(=O)CC)ccc21	–	inactive: -22.1%
COc1cccc(NC(=O)c2ccc(S(=O)(=O)NCc3cccnc3)cc2)c1	inconclusive: 89.1 µM [inhibitor, single point]	–
O=C(NNc1ccccc1)c1sc2ccccc2c1Cl	inconclusive: 50.1 µM [inhibitor, partial curve, poor fit]	–
Clc1ccccc1Cn1c(/C=C/c2ccco2)nc2ccccc21	inconclusive: 56.2 µM [inhibitor, partial curve, poor fit]	–
O=c1c(O)cccc2cc(O)c(O)c(O)c12	active: 20 µM	–
O=C(O)CCCNc1cc(N2CCN(C(=O)c3ccco3)CC2)c2noc3c2c1C(=O)c1ccccc1-3	–	inactive: 9.06%
Cc1ccc(NC(=O)C2C(C(=O)O)C3C=CC2C32CC2)cc1 (stereo not drawn)	inconclusive: 11.2 µM [inhibitor, partial curve]	–
O=C1c2cccc3cccc(c23)C(=O)N1c1ccc(O)cc1	–	inactive: -7.34%
CC(=O)NC(CC(=O)OCC(=O)c1c(N)n(C)c(=O)n(C)c1=O)c1ccccc1 (stereo not drawn)	inconclusive: 63.1 µM [inhibitor, partial curve, poor fit]	–
COc1ccc(CNC(=O)NCc2ccc(OC)c(OC)c2)cc1OC	–	inactive: 3.86%
COc1ccccc1C(=O)Oc1ccc(C(c2c(C)[nH][nH]c2=O)c2c(C)[nH][nH]c2=O)cc1	inconclusive: 56.2 µM [inhibitor, partial curve]	–
CCCN(C(=O)c1ccc(N2CCCC2=O)cc1)C1CCS(=O)(=O)C1 (stereo not drawn)	inconclusive: 2.51 µM [inhibitor, single point]	–

2 consecutive entries out of the list so far, quoted:
SMILES	Potency	max response, negative = inhibition
CC(=O)N1CC23C=CC(CC2CC12CCCCCC2)O3 (stereo not drawn)	inconclusive: 17.8 µM [inhibitor, single point]	–
COC(=O)CSCc1nc2ccccc2[nH]c1=O	inconclusive: 70.8 µM [inhibitor, partial curve]	–
